Assay results reported in US20130035289A1, “PHARMACEUTICAL COMPOSITION FOR TREATMENT OF THROMBOSIS-RELATED DISEASES COMPRISING A FRAGMENT OF PROLACTIN (PRL)-GROWTH HORMONE (GH)-PLACENTAL LACTOGEN (PL)-FAMILY PROTEIN” (UNIVERSITE DE LIEGE, priority 2010, published 2013).
No constants are given. Whether binding was seen depends on the method and setting. For some assays here: In cells and extracts the contact can be indirect. Some entries that bind do so weakly or less than the wild type.

Columns and labels:
[1] = target: T1, Endogenous murine PAI-1 (mouse plasma) (mouse) (UniProt P22777); assay: co-immunoprecipitation from mouse plasma, Western blot
T1 sequence (looked up): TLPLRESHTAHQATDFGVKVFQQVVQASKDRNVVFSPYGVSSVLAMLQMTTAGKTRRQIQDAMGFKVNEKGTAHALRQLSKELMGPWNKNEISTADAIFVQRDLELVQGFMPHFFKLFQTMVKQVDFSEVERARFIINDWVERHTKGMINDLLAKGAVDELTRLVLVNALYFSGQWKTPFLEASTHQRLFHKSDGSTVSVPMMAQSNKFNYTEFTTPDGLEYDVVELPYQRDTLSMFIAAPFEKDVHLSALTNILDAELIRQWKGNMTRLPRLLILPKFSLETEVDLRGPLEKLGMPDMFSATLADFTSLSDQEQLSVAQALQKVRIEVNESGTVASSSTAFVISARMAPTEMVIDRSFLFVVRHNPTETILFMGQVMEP

[2] = target: T1, Endogenous murine PAI-1 (mouse plasma) (mouse); assay: immunoprecipitation of PAI-1 from mouse plasma, Western blot for 16K PRL

B1: Recombinant 16K N-terminal human prolactin (16K hPRL) (protein, UniProt P01236 29-167, looked up)
chain: LPICPGGAARCQVTLRDLFDRAVVLSHYIHNLSSEMFSEFDKRYTHGRGFITKAINSCHTSSLATPEDKEQAQQMNQKDFLSLIVSILRSWNEPLYHLVTEVRGMQEAPEAILSKAVEIEEQTKRLLEGMELIVSQVHP
Question: With B1 as the binder, how does the binding [1] read?
Answer: The binding was “binds”.

Question: What about the binding [2] of the same binder?
Answer: Its binding is “binds”.
